Taken from: PubChem BioAssay AID743454 (Peter MacCallum Cancer Centre, 2014)
Purpose: 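Search for knock-downs that restore vorinostat killing in resistant colon cancer cells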 (primary screen). Cells: human HCT116-VR colon cancer cells, selected for vorinostat resistance. Reagents: siRNA pool against human genes, 40 nM siRNA pool. Timing: vorinostat for 24 h, read-out about 72 h after transfection. Treatment: vorinostat at 2.5 µM final. Measured: 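Two measures, CellTiter-Fluor viability and luminescent caspase 3/7 activity, each as fold change against same-plate mock wells, mean of duplicates, then screen-wide robust z-score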. Scale: viability robust z-score: higher = more viable cells than screen typical; caspase robust z-score: higher = more caspase 3/7 activity than screen typical. Active means: 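a knock-down is a hit when classed RV1 or RV2 for lowered viability, or CA1 or CA2 for caspase activation; those lethal without drug were dropped; hits were retested singly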.
The whole screen tested about 18,000 reagents; below is a random part of them. 450 of all reagents (2.5%) count as active. 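Single biological run; no consistent viability z cut-off exists, so the class columns, not z-scores, define the calls.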 Reagents against one gene are numbered here. Reagent sequences are not shown.

PSMB7 (GeneID 5695) gave viability hit class no change; caspase hit class no change; viability robust z-score -4.05; caspase robust z-score 2.35; inactive. Depletion of SLC16A4 (GeneID 9122) came out at: viability hit class no change; caspase hit class no change; viability robust z-score 1.29; caspase robust z-score -1.31; inactive. With knock-down of KIFC1 (GeneID 3833) the results were viability hit class no change; caspase hit class no change; viability robust z-score 0.74; caspase robust z-score 3.36; inactive. For PLA2G4D (GeneID 283748), the entry reads viability hit class no change; caspase hit class no change; viability robust z-score 0.05; caspase robust z-score -0.6; inactive. Against CCL20 (GeneID 6364), the values are viability hit class no change; caspase hit class no change; viability robust z-score -0.15; caspase robust z-score -0.82; inactive. Depletion of NPC2 (GeneID 10577) resulted in: viability hit class no change; caspase hit class no change; viability robust z-score 0.59; caspase robust z-score -0.34; inactive.

UBE2QL1 (GeneID 134111) gave viability hit class no change; caspase hit class no change; viability robust z-score -0.27; caspase robust z-score 2.38; inactive. With knock-down of FAM53C (GeneID 51307), the record shows viability hit class no change; caspase hit class no change; viability robust z-score -0.66; caspase robust z-score -0.68; inactive. With knock-down of COL8A2 (GeneID 1296), the screen gave viability hit class no change; caspase hit class no change; viability robust z-score 0.14; caspase robust z-score 0.88; inactive. After knock-down of DAZ1 (GeneID 1617) the results were viability hit class no change; caspase hit class no change; viability robust z-score -0.61; caspase robust z-score 0.18; inactive. Depletion of FOSB (GeneID 2354) gave: viability hit class no change; caspase hit class no change; viability robust z-score 0.84; caspase robust z-score 1.82; inactive. ORM1 (GeneID 5004) gave viability hit class no change; caspase hit class no change; viability robust z-score 0.26; caspase robust z-score -0.72; inactive.

Against OR2G3 (GeneID 81469), the entry reads viability hit class no change; caspase hit class no change; viability robust z-score 0.96; caspase robust z-score 0.82; inactive. ACO1 (GeneID 48) showed viability hit class no change; caspase hit class no change; viability robust z-score -1.09; caspase robust z-score -0.47; inactive. ADCK5 (GeneID 203054) scored viability hit class no change; caspase hit class no change; viability robust z-score 0.36; caspase robust z-score 0.4; inactive. TNFAIP6 (GeneID 7130) scored viability hit class no change; caspase hit class no change; viability robust z-score -0.03; caspase robust z-score -1.36; inactive. Knock-down of GABRA4 (GeneID 2557) gave: viability hit class no change; caspase hit class no change; viability robust z-score -0.38; caspase robust z-score 3.4; inactive. DPRX (GeneID 503834) scored viability hit class no change; caspase hit class no change; viability robust z-score 1.05; caspase robust z-score -0.44; inactive.

CCDC7 (GeneID 79741) #1 scored viability hit class no change; caspase hit class no change; viability robust z-score 0.26; caspase robust z-score 0.33; inactive. For CCDC7 (GeneID 79741) #2, the values are viability hit class no change; caspase hit class no change; viability robust z-score -0.18; caspase robust z-score -1.17; inactive. Silencing of TRPV4 (GeneID 59341) resulted in: viability hit class no change; caspase hit class no change; viability robust z-score 0.46; caspase robust z-score 0.77; inactive.

In a second layout: 2 of the entries above
| gene symbol | reagent no. | viability hit class | caspase hit class | viability robust z-score | caspase robust z-score | Call |
| --- | --- | --- | --- | --- | --- | --- |
| ORM1 (GeneID 5004) | 1 | no change | no change | 0.26 | -0.72 | inactive |
| OR2G3 (GeneID 81469) | 1 | no change | no change | 0.96 | 0.82 | inactive |
